Data as given in PubChem BioAssay AID1259254 (NCATS, 2017).
Purpose: 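Genome-wide screen for genes that prevent DNA re-replication in cancer cells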 (primary screen). System: human HCT116 colorectal cancer cells. Reagent: single siRNA against human genes. Time to read-out: 3 days. Measurement: 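Imaged Hoechst DNA stain sorts each cell into a cycle phase by DNA amount; per plate, G2 fraction set to 0% for non-targeting and 100% for GMNN siRNA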. Scale: G2 robust z-score and G2 cells, % of GMNN control: higher = more G2 cells, more excess DNA replication; raw share of cells in G2: higher = larger share of cells with G2 DNA content. Call rule: 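An siRNA counts as active if its G2 robust z-score lies at least 5 MADs above the screen median; here such calls match roughly 38% of GMNN control or more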.
This is an unselected part of about 59,000 reagents tested. About 1,550 of all reagents (2.6%) count as active. 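G2 share is only a proxy for re-replication; each gene was hit by three separate siRNAs, and active genes were retested.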 Raw values vary from plate to plate and are shown uncorrected. The numbers tell different reagents against one gene apart. Not given: the amount of reagent.

no.	Target gene	siRNA no.	G2 robust z-score	G2 cells, % of GMNN control	raw share of cells in G2 (%)	activity call
1	IGDCC4 (immunoglobulin superfamily DCC subclass member 4)	1	1.79	15.5	10.5	inactive
2	IGDCC4 (immunoglobulin superfamily DCC subclass member 4)	2	1.1	10.7	9.59	inactive
3	IGDCC4 (immunoglobulin superfamily DCC subclass member 4)	3	1.71	15	7.78	inactive
4	HEPACAM (hepatic and glial cell adhesion molecule)	1	1	10	10.7	inactive
5	HEPACAM (hepatic and glial cell adhesion molecule)	2	0.427	5.97	6.89	inactive
6	HEPACAM (hepatic and glial cell adhesion molecule)	3	0.989	9.93	8.87	inactive
7	MTNR1B (melatonin receptor 1B)	1	2.6	21.3	13.5	inactive
8	MTNR1B (melatonin receptor 1B)	2	-0.579	-1.11	4.13	inactive
9	MTNR1B (melatonin receptor 1B)	3	-0.345	0.538	3.43	inactive
10	IL1RN (interleukin 1 receptor antagonist)	1	-0.477	-0.388	4.9	inactive
11	IL1RN (interleukin 1 receptor antagonist)	2	-0.976	-3.9	4.2	inactive
12	IL1RN (interleukin 1 receptor antagonist)	3	-0.724	-2.13	3.42	inactive
13	ERG (ETS transcription factor ERG)	1	0.357	5.48	5.61	inactive
14	ERG (ETS transcription factor ERG)	2	1.18	11.3	9.34	inactive
15	ERG (ETS transcription factor ERG)	3	-0.575	-1.08	4.85	inactive
16	MED17 (mediator complex subunit 17)	1	0.509	6.55	5.7	inactive
17	MED17 (mediator complex subunit 17)	2	-0.141	1.97	6.87	inactive
18	MED17 (mediator complex subunit 17)	3	0.35	5.43	5.61	inactive

An excerpt from the list above, for reference:
no.	Target gene	siRNA no.	G2 robust z-score	G2 cells, % of GMNN control	raw share of cells in G2 (%)	activity call
8	MTNR1B (melatonin receptor 1B)	2	-0.579	-1.11	4.13	inactive
9	MTNR1B (melatonin receptor 1B)	3	-0.345	0.538	3.43	inactive
10	IL1RN (interleukin 1 receptor antagonist)	1	-0.477	-0.388	4.9	inactive
11	IL1RN (interleukin 1 receptor antagonist)	2	-0.976	-3.9	4.2	inactive
12	IL1RN (interleukin 1 receptor antagonist)	3	-0.724	-2.13	3.42	inactive
13	ERG (ETS transcription factor ERG)	1	0.357	5.48	5.61	inactive

Additional results:
no.	Target gene	siRNA no.	G2 robust z-score	G2 cells, % of GMNN control	raw share of cells in G2 (%)	activity call
19	SLC26A10P	1	1.08	10.6	8.08	inactive
20	SLC26A10P	2	2.08	17.6	12.9	inactive
21	SLC26A10P	3	3.28	26	13.7	inactive
22	IAPP (islet amyloid polypeptide)	1	3.57	28.1	16.4	inactive
23	IAPP (islet amyloid polypeptide)	2	-0.707	-2.01	3.47	inactive
24	IAPP (islet amyloid polypeptide)	3	-0.0863	2.36	5.9	inactive
25	ZNF436 (zinc finger protein 436)	1	-0.665	-1.71	2.19	inactive
26	ZNF436 (zinc finger protein 436)	2	-0.818	-2.79	4.65	inactive
27	ZNF436 (zinc finger protein 436)	3	0.282	4.95	5.19	inactive
28	EPS8 (EGFR pathway substrate 8, signaling adaptor)	1	-0.443	-0.148	5.21	inactive
29	EPS8 (EGFR pathway substrate 8, signaling adaptor)	2	4.7	36	16.5	inactive
30	EPS8 (EGFR pathway substrate 8, signaling adaptor)	3	0.231	4.59	6.9	inactive
31	ETAA1 (ETAA1 activator of ATR kinase)	1	-0.743	-2.26	2.79	inactive
32	ETAA1 (ETAA1 activator of ATR kinase)	2	0.198	4.36	6.11	inactive
33	ETAA1 (ETAA1 activator of ATR kinase)	3	-0.0301	2.76	4.1	inactive
34	NAXD (NAD(P)HX dehydratase)	1	-0.949	-3.71	3.1	inactive
35	NAXD (NAD(P)HX dehydratase)	2	-0.36	0.432	4.32	inactive
36	NAXD (NAD(P)HX dehydratase)	3	0.0582	3.38	4.21	inactive
37	MCPH1 (microcephalin 1)	1	0.793	8.55	7.99	inactive
38	MCPH1 (microcephalin 1)	2	2.5	20.6	13.3	inactive
39	MCPH1 (microcephalin 1)	3	3.19	25.4	9.32	inactive
40	UPK3B (uroplakin 3B)	1	0.0616	3.4	3.31	inactive
41	UPK3B (uroplakin 3B)	2	-0.0683	2.49	5.48	inactive
42	UPK3B (uroplakin 3B)	3	4.55	35	19.6	inactive
43	ANKRD60 (ankyrin repeat domain 60)	1	-0.686	-1.86	3.47	inactive
44	ANKRD60 (ankyrin repeat domain 60)	2	0.15	4.02	4.38	inactive
45	ANKRD60 (ankyrin repeat domain 60)	3	-0.335	0.608	2.8	inactive
46	SUB1P1 (SUB1 pseudogene 1)	1	-1.06	-4.51	2.2	inactive
47	SUB1P1 (SUB1 pseudogene 1)	2	-0.574	-1.07	2.97	inactive
48	SUB1P1 (SUB1 pseudogene 1)	3	0.163	4.12	4.71	inactive
